Data taken from article PMC9644627.
No constants are given. Whether binding was seen depends on the method and setting. Binding seen in cells or lysates may run through a third protein. Some entries that bind do so weakly or less than the wild type.

Chains of the proteins cited; added tags and fusions are not shown.
UniProt P67809: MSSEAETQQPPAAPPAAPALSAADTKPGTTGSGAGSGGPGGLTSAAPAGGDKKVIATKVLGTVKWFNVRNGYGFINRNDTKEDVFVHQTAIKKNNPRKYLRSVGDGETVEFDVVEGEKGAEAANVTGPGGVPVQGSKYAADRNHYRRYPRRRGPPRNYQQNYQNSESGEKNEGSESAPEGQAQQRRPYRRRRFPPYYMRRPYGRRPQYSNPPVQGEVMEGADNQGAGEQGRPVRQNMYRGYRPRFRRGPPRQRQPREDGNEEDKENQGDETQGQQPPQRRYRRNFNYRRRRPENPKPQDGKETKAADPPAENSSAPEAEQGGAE
UniProt Q15717: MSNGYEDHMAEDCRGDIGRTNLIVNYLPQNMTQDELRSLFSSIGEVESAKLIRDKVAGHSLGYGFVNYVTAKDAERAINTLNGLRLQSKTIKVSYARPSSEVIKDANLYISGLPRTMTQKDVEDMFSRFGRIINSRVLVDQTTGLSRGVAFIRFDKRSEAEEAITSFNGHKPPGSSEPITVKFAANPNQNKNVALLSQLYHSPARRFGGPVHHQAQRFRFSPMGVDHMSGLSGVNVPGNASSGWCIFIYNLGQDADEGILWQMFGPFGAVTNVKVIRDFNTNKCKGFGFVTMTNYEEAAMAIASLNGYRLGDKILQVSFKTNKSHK

Target: YBX1 (UniProt P67809)
Test: co-IP; CoIP assay of ELAVL1 and YBX1; cells, antibodies and which protein was precipitated not told

ELAVL1 (from UniProt Q15717 1-326) was tested, and the binding was “binds”.
